The record followed here is article PMC10937676, “Targeting the NTSR2/TrkB oncogenic pathway in chronic lymphocytic leukemia” (Scientific Reports, 2024).

The chains behind the UniProt entries cited, without tags or fusion partners. Residues count along the entry.
UniProt O95665: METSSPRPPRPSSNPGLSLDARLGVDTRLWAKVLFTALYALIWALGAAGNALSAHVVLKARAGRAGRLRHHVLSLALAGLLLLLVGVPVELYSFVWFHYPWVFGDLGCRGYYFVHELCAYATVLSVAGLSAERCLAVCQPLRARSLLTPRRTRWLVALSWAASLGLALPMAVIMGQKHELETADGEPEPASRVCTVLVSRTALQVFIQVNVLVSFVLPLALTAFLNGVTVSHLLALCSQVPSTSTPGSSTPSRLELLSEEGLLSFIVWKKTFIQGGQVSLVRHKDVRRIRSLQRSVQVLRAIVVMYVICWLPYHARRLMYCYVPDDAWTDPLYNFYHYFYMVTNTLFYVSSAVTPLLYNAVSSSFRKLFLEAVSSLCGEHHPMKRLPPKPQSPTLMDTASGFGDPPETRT
UniProt Q16620, residues 32-822: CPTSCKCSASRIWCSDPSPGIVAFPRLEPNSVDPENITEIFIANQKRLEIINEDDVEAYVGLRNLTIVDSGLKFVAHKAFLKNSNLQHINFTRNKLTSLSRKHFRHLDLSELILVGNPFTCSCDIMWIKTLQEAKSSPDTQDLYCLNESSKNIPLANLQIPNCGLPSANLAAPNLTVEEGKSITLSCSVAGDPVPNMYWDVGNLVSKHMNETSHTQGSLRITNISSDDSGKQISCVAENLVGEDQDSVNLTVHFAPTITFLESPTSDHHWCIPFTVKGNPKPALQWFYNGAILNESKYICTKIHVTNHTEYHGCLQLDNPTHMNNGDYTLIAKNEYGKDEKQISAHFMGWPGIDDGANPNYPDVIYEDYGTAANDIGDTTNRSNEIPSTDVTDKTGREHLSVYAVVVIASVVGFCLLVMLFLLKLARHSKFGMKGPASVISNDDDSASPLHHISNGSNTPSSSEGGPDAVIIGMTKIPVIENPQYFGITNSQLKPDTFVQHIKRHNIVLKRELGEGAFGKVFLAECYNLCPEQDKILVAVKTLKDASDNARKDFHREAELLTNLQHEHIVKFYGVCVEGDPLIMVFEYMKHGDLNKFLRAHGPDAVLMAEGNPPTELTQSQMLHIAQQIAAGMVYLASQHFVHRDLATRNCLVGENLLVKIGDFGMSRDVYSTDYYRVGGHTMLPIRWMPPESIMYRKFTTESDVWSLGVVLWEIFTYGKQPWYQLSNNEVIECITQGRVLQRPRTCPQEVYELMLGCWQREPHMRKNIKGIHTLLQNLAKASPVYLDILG

These are yes or no findings as the source states them, for the method shown. Binding seen in cells or lysates may run through a third protein. Some results given as binding are weak or reduced against the parent protein; the word gives no strength.

For assay [1], the target named is NTSR2-AviTag (neurotensin receptor 2 with an AviTag, biotinylated by BirA) (UniProt O95665). The assay can be described thus: pull-down; biotinylated AviTag-NTSR2 (whole or truncated) isolated on streptavidin-coated magnetic beads from RIPA lysates of transfected HEK293T cells, 2 h at 4 °C; TRKB detected by immunoblot; cells with 40 µM biotin, with or without BDNF. For orientation: In western blotting, separated proteins are transferred to a membrane and probed.

The target of assay [2] is NTSR2 (neurotensin receptor 2), untagged, expressed in HEK293T cells (UniProt O95665). The assay is described as follows: proximity ligation; Duolink PLA for NTSR2 and TRKB on methanol-fixed HEK293T cells transfected with a plasmid encoding TRKB and NTSR2, with or without BDNF.

On to “TRKB (tropomyosin related kinase B), expressed in HEK293T cells (from UniProt Q16620 32-822) (receptor)”, for which the binding result in assay [1] and in assay [2] was “binds” in each case.
